From US6759432B2, “Medical use of matrix metalloproteinase inhibitors for inhibiting tissue contraction” (University of Florida Research Foundation, priority 1994, dated 2004)
For at least one compound, name, drawing or mass did not settle the structure.

Key:
human ocular fibroblasts = assay: Contraction of fibroblast populated collagen gels (lattice area); format: cell-based; conditions: 4 μg/ml and 0.4 μg/ml; 1×10^5 cells per lattice; 7 days; vs 0.1% DMSO vehicle
Procedure: They were then removed from their substratum via a trypsinisation and were pelleted by centrifugation at 3000× g for 8 minutes. The supernatant was then discarded and the cell pellet resuspended in 1.1 ml of newborn calf serum. 100 μl of the suspension was removed and counted in a Coulter counter (Model ZF).
Triplicate gels were made by adding 1.05 ml of the concentrated medium to 1.8 ml of the type 1 collagen solution, mixing rapidly and then adding 0.45 ml of a cell suspension containing 300,000 cells and mixing rapidly.
1 ml aliquots of this gel were then added to petri dishes (area=8 cm^2) and then the dishes were rotated so that the gels were evenly distributed across the bottoms of the dishes. The gels were then incubated at 37° C. in 5% CO2 in air until they had solidified (usually 3 to 5 minutes). […]
The test and control solutions were replaced by 3 ml of the appropriate fresh solution after 24 hours. […] The resulting data were processed by a computer and the gel areas were calculated. […]
Test solutions were used in approximately 3 ml doses. For all contraction experiments cell morphology was monitored by phase contrast microscopy and the growth medium was changed every 3 to 4 days.
Collagen gels were seeded with either 100,000 or 500,000 cells. […] The gels were monitored for 7 days. […]

ocular fibroblasts = assay: Fibroblast morphology within collagen lattices (phase contrast microscopy); format: cell-based, human
Procedure: Collagen lattices seeded with ocular fibroblasts were prepared and exposed to MMP inhibitors, both synthetic chemicals and antibodies, as described in Example 3 above. Cellular morphology was monitored by phase contrast microscopy.

In the case of `CNC(=O)[C@H](Cc1ccccc1)NC(=O)[C@H](CC(C)C)[C@H](CSc1cccs1)C(=O)NO` [BB-94], the “contraction of lattices (mean lattice area)” value (human ocular fibroblasts) is reported as “significant inhibition of contraction”, the “cell morphology in lattices” value (ocular fibroblasts; 4 μg/ml, 7 days post seeding) is reported as “Small cytoplasmic projections” and the “invasion into the surrounding collagen matrix” value (ocular fibroblasts; synthetic inhibitors as in Example 3, compared to controls) is reported as “decreased invasion into the surrounding collagen matrix”.
